About 2,100 (0.66%) of roughly 320,000 compounds were called active. This list was built around the results that the source calls inconclusive (neither active nor inactive); the mix of calls is not that of the screen. Calls follow the shape of the dose curve; as a rule, active = well fitted inhibition curve with a large enough effect in the signal ratio, with a control signal flat (not every such curve was filed as active); inconclusive = small, poorly fitted or top-dose-only effect, or effect the other way, or a change in a side signal; inactive = flat fitted curve, though single readings scatter; the % refers to the signal ratio. A potency beside an inconclusive call is a rough fit, not a confirmed value.
Test: qHTS Assay for Lipid Storage Modulators in Drosophila S3 Cells
Conditions: BODIPY lipid droplet fluorescence, 18-24 h, cells fed with added oleic acid; lipid storage change, negative = inhibition: at 46.1 µM (top of the series) unless noted
Method in brief: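 Drosophila S3 cells loaded with oleic acid (400 uM, as added) and compounds at several concentrations; lipid droplets imaged by 488-nm laser-scanning cytometry, 500–530 nm intensity and object ratio to cell channel. Percent activity normalized to 20 uM Triacsin C.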
In the case of `CCC1=Nc2cc(C(=O)N3CCC4(CC3)OCCO4)ccc2Sc2ccc(Br)cc21`, the lipid storage change, negative = inhibition is reported as inconclusive: 37.4%. In the case of `CCOC(=O)COc1ccc2c(c1)c(C(C)=O)c(C)n2Cc1ccccc1`, the Potency is reported as inconclusive: 18.4 µM [activator, partial curve]. In the case of `CCN1CCN(c2ccc([N+](=O)[O-])cc2C=C2C(=O)NC(=O)NC2=O)CC1`, the lipid storage change, negative = inhibition is reported as inconclusive: -4.02%. For `CN(CCc1ccccc1)Cc1ccccc1[N+](=O)[O-]`, the lipid storage change, negative = inhibition was inconclusive: 42.2%. For `CCN1C(=O)C(=Cc2c(C)n(CC(=O)NCC3CCCO3)c3ccccc23)C(=O)N(CC)C1=S` (stereo not given), the lipid storage change, negative = inhibition was inconclusive: 13.6%. With `OCCN(CC#CC(O)(c1ccccc1)C1CCCC1)CCO` (stereo not given) the lipid storage change, negative = inhibition was inconclusive: -10.3%. For `CCOC(=O)Cn1c(=O)oc2cc(S(=O)(=O)Nc3cccc(C)c3)ccc21`, the Potency was inconclusive: 0.92 µM [rising, full curve]. In the case of `COC(=O)C1=C(c2ccc(C(C)=O)cc2)C[C@@H]2CC[C@H]1N2C(=O)NC1Cc2ccccc2C1`, the lipid storage change, negative = inhibition is reported as inconclusive: 5.67%. In the case of `CCOC(=O)c1cn2nc(OP(=S)(OCC)OCC)cc2nc1C`, the Potency is reported as inconclusive: 0.731 µM [activator, full curve, poor fit]. For `CN1CCN(CC(=O)Nc2ccc([N+](=O)[O-])cc2C(=O)c2ccccc2)CC1`, the lipid storage change, negative = inhibition was inconclusive: 152%. For `CCN(CC)P(=S)(c1c(C)nc2ccccn12)c1c(C)nc2ccccn12`, the lipid storage change, negative = inhibition was inconclusive: -9.02%. For `COc1ccccc1CC1C(=O)C2CCN1CC2` (stereo not given), the lipid storage change, negative = inhibition was inconclusive: -21.7%. In the case of `Cn1c(O)c(C=NC2CCN(Cc3ccccc3)CC2)c(=O)[nH]c1=O`, the “lipid storage change, negative = inhibition” value is reported as inactive: -10%. With `CN(C)CCCNCC(=O)Nc1ccc(Cl)cc1C(=O)c1ccccc1` the lipid storage change, negative = inhibition was inconclusive: 25.8%. In the case of `C=CCn1c(O)c(C(C)=NCCCn2ccnc2)c(=O)[nH]c1=O`, the lipid storage change, negative = inhibition is reported as inconclusive: 38.8%. With `Clc1cccc(CNCCc2c[nH]c3ccccc23)c1` the lipid storage change, negative = inhibition was inconclusive: -23.7%. For `Cc1nn(Cc2ccccc2)c(C)c1C(=O)OCC(=O)Nc1cc(S(C)(=O)=O)ccc1Cl`, the lipid storage change, negative = inhibition was inconclusive: -10.5%. For `COc1ccc(C2=NCC(=S)Nc3ccc(Cl)cc32)cc1Cl`, the “lipid storage change, negative = inhibition” value was inactive: 13.5%. For `Cc1ccc(S(=O)(=O)N(C)C/N=C(\N)N[N+](=O)[O-])cc1`, the lipid storage change, negative = inhibition was inconclusive: -27.7%. In the case of `COC(=O)C1=Nc2ccccc2/C1=C\c1c(O)n(-c2ccc(OC)cc2)c(=O)[nH]c1=O`, the lipid storage change, negative = inhibition is reported as inconclusive: -0.445%. In the case of `CN(C)C(=O)Oc1ccc2c(c1)O/C(=C\c1cccc([N+](=O)[O-])c1)C2=O`, the Potency is reported as inconclusive: 0.58 µM [falling, single point]. With `C=CCn1c(O)c(C(C)=NC2CCN(Cc3ccccc3)CC2)c(=O)[nH]c1=O` the “lipid storage change, negative = inhibition” value was inactive: 0.565%. With `COc1ccc(OC)c2c1CCC1NCCOC21` (stereo not given) the lipid storage change, negative = inhibition was inconclusive: 52.6%. With `CN1CCC(N2CC3CC(C2)c2cccc(=O)n2C3)CC1` (stereo not given) the lipid storage change, negative = inhibition was inconclusive: -13.3%. In the case of `Cc1nc2ccccc2c(=O)n1-c1cccc([N+](=O)[O-])c1`, the Potency is reported as inconclusive: 20.6 µM [activator, single point]. For `Cc1ccsc1C(=O)C1CCCN(Cc2ccn[nH]2)C1` (stereo not given), the lipid storage change, negative = inhibition was inconclusive: 17.7%. With `O=[N+]([O-])c1ccc(-[n+]2c(-c3ccccc3)cc(-c3ccccc3)cc2-c2ccccc2)cc1` the Potency was inconclusive: 23.1 µM [falling, single point]. For `COc1ccc2[nH]c(C)c(CCN3CCC(=O)C(C)C3C)c2c1` (stereo not given), the lipid storage change, negative = inhibition was inconclusive: 14.6% [at 9.22 µM]. With `CCOc1cc2c(cc1OCC)-n1cccc1C(c1cccc(F)c1F)NC2` (stereo not given) the Potency was inconclusive: 29.1 µM [rising, single point]. For `CC(C)n1c(/C=C/[C@H](O)C[C@H](O)CC(=O)O)c(-c2ccc(F)cc2)c2ccccc21`, the Potency was inconclusive: 4.61 µM [falling, single point]. In the case of `COc1cc(/C=C2\C(=O)NC(=O)N(c3ccccc3)C2=O)cc(OC)c1OC`, the Potency is reported as active: 0.731 µM. In the case of `Cc1cc(OC(=O)N(C)C)nc(SCc2c(Cl)cccc2Cl)n1`, the lipid storage change, negative = inhibition is reported as inconclusive: 19.2%. With `CC(=O)Nc1ccccc1OC(=O)N(C)C` the lipid storage change, negative = inhibition was inconclusive: -19.7%. In the case of `CN1CCN(c2cccc3c2C(=O)c2ccccc2C3=O)CC1`, the Potency is reported as inconclusive: 5.8 µM [falling, full curve, poor fit]. For `O=c1[nH]c(=O)n(CCC2=CCCCC2)c(O)c1C=NCCCn1ccnc1`, the lipid storage change, negative = inhibition was inconclusive: 18.2%. With `Cc1ccc(-c2nn(Cc3ccccc3)cc2C=O)cc1` the lipid storage change, negative = inhibition was inconclusive: -7.89%. With `O=c1[nH]c(=O)n(-c2ccccc2F)c(O)c1C=NCCC1=CCCCC1` the Potency was inconclusive: 29.1 µM [cytotoxic, single point]. In the case of `Cc1cccc(N2CCc3c2nc2ccccc2c3N)c1`, the lipid storage change, negative = inhibition is reported as inconclusive: 11.6%. In the case of `CCOC(=O)c1ccc(S(=O)(=O)n2c(=O)oc3ccccc32)cc1`, the Potency is reported as active: 20.6 µM. With `COc1ccc(C(CNC(=O)Cc2ccc(Cl)c(Cl)c2)N2CCCCC2)cc1` (stereo not given) the Potency was inconclusive: 0.259 µM [rising, full curve, poor fit]. For `CN1C(=O)C(=Cc2ccccc2OS(=O)(=O)c2ccccc2)C(=O)N(C)C1=O`, the lipid storage change, negative = inhibition was inconclusive: -47.8%. For `O=C1NC(=O)C(=Cc2csc3ccccc23)C(=O)N1`, the lipid storage change, negative = inhibition was inconclusive: 1.42%. For `CCOc1cccc(N2C(=O)/C(=C/c3ccco3)C(=O)NC2=S)c1`, the lipid storage change, negative = inhibition was inconclusive: 9.26%. For `CCCCn1c(NC(=O)c2ccco2)c(C(=O)OCC)c2nc3ccccc3nc21`, the Potency was inconclusive: 9.2 µM [activator, partial curve, poor fit]. In the case of `COc1cc(C(CN)CC(=O)O)ccc1O` (stereo not given), the lipid storage change, negative = inhibition is reported as inconclusive: -41.8%. For `COc1ccc(C(O)c2cc(OC)ccc2OP(=O)(N(C)C)N(C)C)cc1` (stereo not given), the Potency was inconclusive: 29.1 µM [rising, single point]. With `CCC(=O)CC(c1ccccc1)c1c(O)c2ccccc2sc1=O` (stereo not given) the lipid storage change, negative = inhibition was inconclusive: -0.467%. With `O=c1[nH]c(CN2CC=C(c3ccccc3)CC2)nc2cc(C(F)(F)F)ccc12` the lipid storage change, negative = inhibition was inconclusive: 0.113%. In the case of `COc1cc2c(cc1OC)-c1c(OC)c(OC)c(OC)c3ccnc(c13)C2=O`, the lipid storage change, negative = inhibition is reported as inconclusive: -34.1%. In the case of `O=C(c1cc(-c2cccnc2)nc2ccccc12)N1CCC2(CC1)OCCO2`, the lipid storage change, negative = inhibition is reported as inconclusive: 18.4%. For `C=CCn1c(O)c(C(CC)=Nc2ccc(C(=O)O)cc2)c(=O)[nH]c1=O`, the lipid storage change, negative = inhibition was inconclusive: 12.4%. With `Nc1ccc2c(c1)Cc1ccccc1-2` the Potency was inconclusive: 7.31 µM [falling, partial curve]. In the case of `Cc1ccccc1N1C(=O)CC(=O)NC1=O`, the Potency is reported as inconclusive: 6.51 µM [activator, single point]. For `COc1ccc(CN2C(=O)NC(=O)/C(=C\c3ccco3)C2=O)cc1`, the Potency was inconclusive: 0.731 µM [falling, partial curve, poor fit]. For `CC(=O)O[C@H]1C(=O)[C@@]2(C)C([C@H](OC(=O)c3ccccc3)[C@]3(O)C[C@H](OC(=O)[C@H](O)[C@@H](NC(=O)Cc4ccccc4)c4ccccc4)C(C)=C1C3(C)C)[C@]1(OC(C)=O)CO[C@@H]1C[C@@H]2O` (stereo not given in full), the Potency was inconclusive: 29.1 µM [falling, single point]. In the case of `O=C(Nc1cccc(Cl)c1)c1c(O)c2c(n(Cc3ccccc3)c1=O)CCCC2`, the Potency is reported as inconclusive: 3.66 µM [activator, single point]. With `Cc1cccc(C(=O)Nc2ccc3c(c2)CC2(C(=O)N(C)C(=O)N(C)C2=O)C2CCCN32)c1` (stereo not given) the Potency was inconclusive: 6.51 µM [activator, single point]. For `CC/C(=N\NC(N)=O)c1c(O)[nH]c(=O)[nH]c1=O`, the lipid storage change, negative = inhibition was inconclusive: -4.98%. With `CN(C)C(=O)Oc1cccc(NC(=O)c2ccccc2C(F)(F)F)c1` the “lipid storage change, negative = inhibition” value was inactive: -14.6%. In the case of `O=CNc1ccc(OP(=O)(Oc2ccccc2)Oc2ccccc2)cc1`, the lipid storage change, negative = inhibition is reported as inconclusive: -10.3%. With `CCCCn1c(O)c(C(C)=NC(C)c2ccccc2)c(=O)[nH]c1=O` (stereo not given) the Potency was inconclusive: 18.4 µM [activator, partial curve]. For `CC1CN(O)C2CCc3nonc3C12O` (stereo not given), the lipid storage change, negative = inhibition was inconclusive: -83%. With `CN1CCN(Cc2ccccc2Sc2ccccc2)CC1` the Potency was inconclusive: 0.0065 µM [falling, full curve, poor fit]. In the case of `CCOC(=O)C1=Nc2ccccc2/C1=C\c1c(O)n(C)c(=O)n(C)c1=O`, the lipid storage change, negative = inhibition is reported as inconclusive: 9.37%. In the case of `CCCc1cc(=O)oc2cc(OCC(=O)N3CCN(Cc4ccc5c(c4)OCO5)CC3)ccc12`, the lipid storage change, negative = inhibition is reported as inconclusive: 7.95%. With `C[C@H]1CCC/C=C/C2C[C@H](O)CC2[C@H](O)/C=C/C(=O)O1` (stereo not given in full) the lipid storage change, negative = inhibition was inconclusive: -1.3%. With `N/C(=N\[N+](=O)[O-])N1CCN(C(=O)OC2CCCC2)CC1` the lipid storage change, negative = inhibition was inconclusive: 46%. In the case of `COC(=O)C1=C(c2ccc(F)cc2OCc2ccccc2)C[C@@H]2CC[C@H]1N2C(=O)NCc1ccc(C)cc1`, the Potency is reported as inconclusive: 6.51 µM [falling, partial curve, poor fit]. For `Cc1ccccc1OCCn1c(=O)oc2ccccc21`, the Potency was inconclusive: 0.82 µM [activator, full curve, poor fit]. In the case of `COc1ccc(NC(=O)N2C[C@@H]3C[C@@H](C2)c2cccc(=O)n2C3)cc1`, the lipid storage change, negative = inhibition is reported as inconclusive: -16.6%. In the case of `CC(ON1CC1(C(F)(F)F)C(F)(F)F)(C(N)=O)C(N)=O` (stereo not given), the lipid storage change, negative = inhibition is reported as inconclusive: 11.3%. With `CCOC(=O)c1c(-c2ccc(OC)cc2)oc2ccc(OC(=O)N(C)C)cc12` the lipid storage change, negative = inhibition was inconclusive: 58.8%. With `CCCNC1=C(C)C(=O)C2=C(C1=O)C(COC(N)=O)[C@]1(OC)C3NC3CN21` (stereo not given in full) the lipid storage change, negative = inhibition was inconclusive: 1.66%. With `CCN1CCN(Cc2cc(Br)ccc2O)CC1` the lipid storage change, negative = inhibition was inconclusive: 20.7%. With `Cc1cc(C)[n+](CCCC[n+]2c(C)cc(C)cc2C)c(C)c1` the lipid storage change, negative = inhibition was inconclusive: 2.2%.

— PubChem BioAssay AID2685 (National Center for Advancing Translational Sciences (NCATS), 2010)
% is scaled to controls: 0 for no effect and ±100 for the full control effect; potency is read from the fitted curve at half-maximal effect.
